# Results of single-concentration screens

Amino acid sequences for entries named in this document (tags omitted). Residues count along the entry.
UniProt P9WNZ1, whole entry: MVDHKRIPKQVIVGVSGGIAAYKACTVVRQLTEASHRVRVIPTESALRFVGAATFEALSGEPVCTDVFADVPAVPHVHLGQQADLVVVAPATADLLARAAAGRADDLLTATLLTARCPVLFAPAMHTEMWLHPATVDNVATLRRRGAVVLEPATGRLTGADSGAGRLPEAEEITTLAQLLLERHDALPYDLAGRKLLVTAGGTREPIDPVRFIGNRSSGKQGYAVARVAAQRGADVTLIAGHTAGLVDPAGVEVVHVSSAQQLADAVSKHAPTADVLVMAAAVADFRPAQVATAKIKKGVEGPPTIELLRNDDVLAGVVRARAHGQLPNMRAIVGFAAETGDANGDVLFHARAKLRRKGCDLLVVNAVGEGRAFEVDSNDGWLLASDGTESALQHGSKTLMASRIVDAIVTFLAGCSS
UniProt A4I591, 1-473: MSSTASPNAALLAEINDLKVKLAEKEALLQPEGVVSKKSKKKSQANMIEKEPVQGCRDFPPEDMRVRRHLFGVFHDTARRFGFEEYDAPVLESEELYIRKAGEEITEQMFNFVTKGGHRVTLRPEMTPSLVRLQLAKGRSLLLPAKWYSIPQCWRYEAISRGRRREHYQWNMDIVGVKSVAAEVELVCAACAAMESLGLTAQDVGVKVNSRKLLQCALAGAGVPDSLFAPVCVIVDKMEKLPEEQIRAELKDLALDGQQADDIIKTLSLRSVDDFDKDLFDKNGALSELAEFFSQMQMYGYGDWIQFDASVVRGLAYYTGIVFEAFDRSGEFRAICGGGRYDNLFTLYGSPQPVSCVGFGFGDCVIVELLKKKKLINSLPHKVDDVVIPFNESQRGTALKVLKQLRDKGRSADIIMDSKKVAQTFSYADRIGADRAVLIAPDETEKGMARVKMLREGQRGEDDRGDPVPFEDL

Each number is a percent effect as filed.
How 0% and 100% were set is not recorded. Most values in the screen are low, and negative values occur.
This is an unselected part of the compounds tested.
Two or more numbers in one place are separate tests of the same structure; such repeats can differ widely.
A dash means the value is not listed here; it may have been measured.

CoaBC: 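Enzyme assay of CoaBC with a phosphate dye (Biomol Green) read at 650 nm. Target: Coenzyme A biosynthesis protein CoaBC, Mycobacterium tuberculosis (UniProt P9WNZ1). Concentration: 30 µM. Higher reads as stronger inhibition, judged from the few compounds that gave an IC50. Most strong results did not repeat in a second test. About 67,000 compounds were tested under these conditions; 0.06% (about 40) showed 50% or more at least once.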
LiHisRS: 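Histidine-tRNA ligase, Leishmania infantum (UniProt A4I591). Enzyme assay of histidyl-tRNA synthetase; the read-out is not stated. Concentration: 30 µM. The record gives no direction; compounds that gave an IC50 in retests scored well above the rest, so higher reads as stronger inhibition. The assay is labelled LdHisRS but filed under L. infantum. Size under these conditions: about 69,000 compounds, about 410 of them at 50% or above in at least one test.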
Leishmania in macrophages: 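Cell assay of Leishmania donovani living inside macrophages; the read-out is not stated. Compounds at 30 µM. Higher reads as stronger inhibition (inferred: compounds with an IC50 in retests scored well above the rest). Of about 69,000 compounds tested this way, about 1,000 (1.5%) reached 50% or more in at least one test.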

structure	CoaBC	LiHisRS	Leishmania in macrophages
Cl.O=C1CC(NCc2cnc(N3CCCC3)nc2)CN1c1ccccc1 (stereo unspecified)	-	-	-5.715
CC(C)Oc1ncc(C(=O)N2CCC(NC(=O)C3CC3)CC2)cc1Cl	0.2151	0	2.664
COc1ccc(OC)c(C2CC(=O)Nc3nc(N4CCOCC4)sc32)c1 (stereo unspecified)	1.646	102.5	32.68
CS(=O)(=O)N[C@@H]1CCO[C@]2(CCN(C(=O)c3cnccn3)C2)C1	3.342	15.04	18.09
CCC(C)NC(=O)c1cc(S(=O)(=O)N(C)C)c(C)s1 (stereo unspecified)	4.566	9.396	18.24
O=C1[C@@H]2CCN(CC3CC3)C[C@@H]2OCCN1c1cccnc1	2.083	26.5	-
CN(C)c1ncc(C2Nc3ccccc3C3=NCCCN32)cn1.Cl (stereo unspecified)	-	-	4.413
[H][C@]12CNC[C@@]1(C(=O)NCCCOc1cccnc1)CN(C(C)=O)C2	-	-	20.03
CCc1ccc2nc(C)cc(C(=O)N[C@@H]3C[C@@H](CO)N(C)C3)c2c1	-1.235	11.19	1.22
CCc1ncncc1C(=O)N1CCCN(Cc2ccc(C#N)cc2)CC1	1.173	20.18	22.18
CCN(CC)c1ncc(CNC2CCc3ncnn3C2)s1 (stereo unspecified)	7.143	2.083	15.91
CCOCCCNC(=O)c1cc(C)nc(N2CCCC2)n1	2.557	11.65	7.493
Cn1ccnc1SCCNC(=O)CC1CCc2ccccc21 (stereo unspecified)	6.865	12.68	21.54
O=C(c1ccccc1F)N1CCC2(CC1)CC(N1CCCC1)CO2 (stereo unspecified)	1.733	9.91	-
Cc1nc(-c2nc(C(=O)NC3CC3)c3ccccn23)cn1C(C)C	-0.6188	13.86	37.78
NC(=O)c1cnn2c1NCC(CNC1(c3ccccc3)CCC1)C2 (stereo unspecified)	0.2427	19.05	26.97
CN(C)C(=O)[C@@H]1C[C@@H]2CCN(C3CCOCC3)C[C@H]2O1	14.57	12.5	-
Cc1noc(C)c1CN1CC[C@H]2O[C@@H](C(=O)N3CCCC3)CC[C@H]21	-1.29	22.22	-
CN(C)C(=O)N1CC2(CCNCC2)c2cc(F)ccc21.O=C(O)C(F)(F)F	-	-	39.56
O=C(Cn1cc(C2CC2)nn1)NC(c1ccc(Cl)cc1)C1CC1 (stereo unspecified)	6.838	3.419	5.868
Cc1cc2cccc(C(=O)N3CCOC(CCN(C)C)C3)c2o1 (stereo unspecified)	-4.592	6.122	11.83
O=C(Cn1nc2c(cc1=O)CCCC2)N[C@@H](Cc1ccccc1)C(=O)O	-2.826	15.53	3.47
CCn1c(N)nc2cc(C(=O)NCCc3nnc(C)s3)cnc21	-0.1266	20.48	-76.44
O=C(O)C(F)(F)F.[H][C@@]12CCN(Cc3ccc(C)o3)C[C@@]1([H])[C@H](C(=O)N1CCCCO1)CCO2	-	-	-6.63
Cc1ccccc1C(=O)N1CC2(COC(C)(C)OC2)C1	17.55	12.17	-5.183 and 11.35
COc1ccccc1C(N)CC(C)C (stereo unspecified)	0.9901	2	3.977
[H][C@]12CC[C@]([H])(CN(C3CCOCC3)C1)N(Cc1cnc(NCCC)nc1)C2	-	-	25.1
CCCc1nc(C(=O)N2CCN(C(=O)c3ccc(OC)cc3)CC2)cs1	4.268	15.38	1.806
Cc1nc2c(N3CCN(Cc4ccccc4)CC3)nc(N)nc2n1C	-10.42	7.865	-4.248
COc1ccc(OC)c(C(O)CN2CC(n3cccn3)C2)c1 (stereo unspecified)	-3.191	18.4	21.56
COCc1cc(CNCc2c(C)n(CC(C)C)c3ccccc23)n[nH]1	-0.1122	10.75	13.81
O=c1[nH]c2csnc2c(=O)n1Cc1ccc(Br)cc1	0.2358	9.89	-14.21
[H][C@]12CC[C@]([H])(CN(c3ncccc3C(N)=O)C1)N(CC=C(C)C)C2=O	-	-	24.13 and 12.43
O=C1N(CCO)CCCC12CCN(Cc1noc(C3CCCC3)n1)C2 (stereo unspecified)	-3.342	10.42	1.432
CCNc1ncc(-c2cc(-c3ccn(C)c3)nc(N)c2C#N)cn1	3.125	16.67	-7.222
CC(=O)c1nn(-c2ccccc2)c(C)c1C(C)=O	-7.783	5.495	14.98
Cc1cccc2cc(CNCCCN3CCOCC3)c(=O)[nH]c12	5.833	30.56	5.18
CCCc1nccn1CCn1cnc2ccsc2c1=O	0.1965	4.386	6.348
O=C(O)C(F)(F)F.[H][C@]12OCCC[C@]1([H])N(C(=O)c1ccc(C)o1)C[C@H]2OCc1cccnc1	-	-	29.95
CC(NC(=O)NCc1ccccc1)(C(=O)O)c1ccco1 (stereo unspecified)	2.477	2.632	-23.48
COCc1ccccc1C(=O)N1CCCC(c2cc(C)[nH]n2)C1 (stereo unspecified)	7.101	14.91	-24.44
CCN(C(=O)CCn1cccn1)C1CC1	9.054	10.26	18.51
O=C(O)C(F)(F)F.[H][C@@]12CCN(CC3CC3)[C@@]1([H])CCN2C(=O)c1ccc(C#N)cc1	-	-	-8.17
O=C1CC(c2ccc3ccccc3n2)c2c(n[nH]c2C2CCC2)N1 (stereo unspecified)	-5.785	22.45	14.64
CCOC1CC2(CCN(C(=O)Cc3ccccn3)CC2)C1	-1.724	-12	-
COc1ccc(CN2CC[C@H](O)[C@@H]2Cc2cnn(C)c2)cc1.O=C(O)C(F)(F)F	-	-	36.9
COCCC(=O)N1CCC2(CCN(Cc3ccc(C)cc3)CC2)C1	3.337	-15	-
COCCOc1ccc(CNCC2CNc3cc(C)nn3C2)cn1 (stereo unspecified)	10.77	17.86	25.75
CCCn1cc(-c2ccnc(NC3CCc4ccccc43)n2)c(C)n1 (stereo unspecified)	7.371	21.51	-2.755
COCC1CC2(CCN(Cc3cccnc3)CC2)CN1c1ncccn1 (stereo unspecified)	-9.121	14.29	-
CN(C)CC1COCCN1C(=O)c1ccccc1C(=O)c1ccccc1 (stereo unspecified)	1.623	14.88	-
Cc1ncc2c(n1)CN(CC(=O)Nc1cc(C)on1)CC2	1.66	15.18	22.24
COCCn1cncc1CN1CCC(C(C)=O)(c2ccccc2)CC1	-	8.571	15.79
C1CC(c2noc(C3CC3)n2)CN(Cc2noc(C3CC3)n2)C1 (stereo unspecified)	3.203	7.143	20.03
Cc1ccc(C)c(CSc2nnc([C@@H](N)C(C)C)o2)c1.Cl	-	-	-10.46
CCc1nc(CN2CCCC(NCc3nc4ccccc4o3)C2)no1 (stereo unspecified)	8.163	9.091	10.71
Cc1nc(C2CCN(C(=O)c3cnc(N(C)C)nc3)CC2)c2sccn12	1.695	14.43	-0.7019 and 9.94
O=C(c1n[nH]c2c1CCN(Cc1nccs1)C2)N1CCOCC1	0.4673	17.11	-3.569
CC(C)c1ncc(CNC2(c3ccc(Cl)cc3)CC2)cn1	-4.623	28.42	23.13 and 27.97
Cc1ccc(-c2nnc(C(C)N3CCn4c(C)nnc4C3)o2)cc1 (stereo unspecified)	2.101	7.692	18.57
COc1ccc(CN(Cc2ccco2)Cc2[nH]cnc2C)c(OC)c1.O=C(O)CC(O)(CC(=O)O)C(=O)O	-	-	17.36
Cn1cc(N2CC3(CCN(CC4CCC4)CC3)OCC2=O)cn1.O=C(O)C(F)(F)F	-	-	6.168
COCC1CCCN(c2cncc(OCc3ccccc3)n2)C1 (stereo unspecified)	5.178	17.65	-2.786
CN(C)C(=O)Cn1c2c(ccc1=O)CCN(Cc1cnn(C)c1)CC2	0.6061	7.692	-
CCc1ccc(S(=O)(=O)N2CCN(CCn3ccnc3)CC2)cc1	1.272	7.692	-10.72 and 22.65
[H][C@]12CC[C@]([H])(CN(C(=O)Cn3c(C)cc(C)nc3=O)C1)N(CC1CCC1)C2	-	-	-20.38
Cc1nn(C)c(Cl)c1C1CCCN1C(=O)c1ccnc(N(C)C)c1 (stereo unspecified)	2.611	13.27	3.478
Cc1ncc(S(C)(=O)=O)c(N2Cc3ccccc3C2)n1	1.709	6.838	-11.42
Cn1cc(CNc2cnn(CC3CCCO3)c2)c(-c2ccncc2)n1 (stereo unspecified)	2.947	30.7	-7.16
Cc1cc(CNC(=O)Nc2cccc(COCCOC(C)C)c2)no1	0.3654	26.88	11.1
[H][C@@]12NCCCC[C@]1([H])N(C(=O)c1cccc(OC)c1)C[C@H]2c1ccccc1	-	-	16.1
Cc1nn(C)c(Cl)c1C1CCCN1Cc1nc(C2CC2)no1 (stereo unspecified)	3.259	11.4	9.169
Cc1oc(-c2ccoc2)nc1CN1CCC[C@H]1CO	-4.946	12	18.48
COCCN1CCC(c2ncc(C(=O)N3CCOCC3)c(C)n2)CC1	1.166	9.929	-16.68

5 of the entries, repeated:

{"structure": "COc1ccc(OC)c(C2CC(=O)Nc3nc(N4CCOCC4)sc32)c1", "stereo": "stereo unspecified", "CoaBC": 1.646, "LiHisRS": 102.5, "Leishmania in macrophages": 32.68}
{"structure": "O=C(O)C(F)(F)F.[H][C@@]12CCN(CC3CC3)[C@@]1([H])CCN2C(=O)c1ccc(C#N)cc1", "Leishmania in macrophages": -8.17}
{"structure": "Cc1ccccc1C(=O)N1CC2(COC(C)(C)OC2)C1", "CoaBC": 17.55, "LiHisRS": 12.17, "Leishmania in macrophages": "-5.183 and 11.35"}
{"structure": "Cc1ccc(-c2nnc(C(C)N3CCn4c(C)nnc4C3)o2)cc1", "stereo": "stereo unspecified", "CoaBC": 2.101, "LiHisRS": 7.692, "Leishmania in macrophages": 18.57}
{"structure": "COc1ccccc1C(N)CC(C)C", "stereo": "stereo unspecified", "CoaBC": 0.9901, "LiHisRS": 2, "Leishmania in macrophages": 3.977}

From ChEMBL document CHEMBL3988442, “University of Dundee, Small-Polar-MMV Screening Library” (2021).